Data as given in PubChem BioAssay AID652243 (Drosophila RNAi Screening Center, 2013)
The screen tested about 24,000 reagents; shown is a random part of those that have a named target and a result. Of all reagents, 246 (1%) are marked active. 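Plates not normalised; calls are printed but the firefly/Renilla ratio behind them is not deposited; fold cut for lowering reported inconsistently.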 The raw values are shown without normalisation. A number with no mark means an inactive call. A plus sign joins genes that one reagent is predicted to hit. Not given: the amount of reagent.

Purpose: 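Knock-downs that decrease or increase androgen receptor reporter signal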 (primary screen)
Cell system: Drosophila S2R+ cells
Reagents: long dsRNA against Drosophila genes
Duration: 72 h (48 h, then 24 h hormone)
Treatment: synthetic androgen R1881 at 10 nM for 24 h
Measurement: 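Firefly light from an androgen-responsive reporter and Renilla control light per well, raw and unnormalised, for each of two replicates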
Direction: firefly reporter light: higher = more light from androgen-responsive reporter; Renilla control light: higher = more constitutive control signal (cell number, transfection)
Hit rule: 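Hit when the log firefly-to-Renilla ratio dropped or increased by a fixed fold versus the mean of GFP or LacZ controls across duplicate plates; lowering cut given as 1.5 and as 3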
Meaning of the calls: active = hit: reporter lowered or raised; inactive = no hit

gene knocked down	PubChem SID	firefly reporter light, replicate 1	firefly reporter light, replicate 2	Renilla control light, replicate 1	Renilla control light, replicate 2
Teh3 (tipE homolog 3)	SID104188329	92008	1.32e5	9.48e5	1.06e6
Teh3 (tipE homolog 3)	SID104208016	3.23e5	4.59e5	8.58e5	8.58e5
His-Psi:CR31616 + His-Psi:CR31615	SID104183552	4.09e5	3.84e5	1.15e5	1.22e5
Fkbp14 (FK506-binding protein 14)	SID104184407	7.12e5	7.29e5	2.43e6	2.32e6
CG5890	SID104195701	7.16e5	7.72e5	2.92e6	2.70e6
Snapin + HemK2	SID104204729	4.95e5	5.58e5	7.32e5	6.04e5
CG6733	SID104195895	1.49e5	2.06e5	2.69e6	2.86e6
Nubp2 (NUBP iron-sulfur cluster assembly factor 2)	SID104191550	2.74e5	2.07e5	1.92e6	2.14e6
NTPase	SID104180553	8.51e5	8.32e5	1.92e6	1.22e6
NTPase	SID104204777	4.09e5	3.95e5	7.75e5	6.73e5
CG2926	SID104192113	40524	45371	7.07e5	5.87e5
Ski6	SID104182283	2.69e5	2.64e5	2.46e6	2.44e6
lncRNA:CR34335 (long non-coding RNA:CR34335)	SID104216317	6.51e5	5.47e5	1.48e6	1.69e6
mdy (midway)	SID104181351	2.37e5	2.11e5	3.58e5	5.22e5
mdy (midway)	SID104182042	9.23e5	6.38e5	2.29e6	1.97e6
Dpck (Dephospho-CoA kinase)	SID104192367	18762	25756	1.37e6	1.40e6
Cp7Fc (Chorion protein c at 7F)	SID104197827	6.15e5	4.01e5	3.41e6	3.09e6
Cp7Fc (Chorion protein c at 7F)	SID104205976	2.33e5	3.09e5	6.26e5	6.27e5
mRpL52 (mitochondrial ribosomal protein L52)	SID104186377	4.67e5	4.55e5	2.15e6	2.19e6
CG7239	SID104202470	6.76e5	6.98e5	2.41e6	2.38e6
PolE1 (DNA polymerase epsilon subunit 1)	SID104195904	25203	31264	4.40e5	4.37e5
PolE1 (DNA polymerase epsilon subunit 1)	SID104206157	2.58e5	2.99e5	2.46e5	5.73e5
CG34460	SID104186766	83500	95112	9.81e5	9.81e5
eIF4B (eukaryotic translation initiation factor 4B)	SID104215505	5.35e5	5.84e5	7.66e5	1.47e6
CG7006	SID104195961	83063	69858	4.84e5	5.53e5
Ada2b (transcriptional Adaptor 2b)	SID104196323	1.19e5	1.18e5	2.19e6	1.97e6
CG34241	SID104216420	1.12e6	1.05e6	1.99e6	1.84e6
Octbeta2R (Octopamine beta2 receptor)	SID104192709	4.43e5	2.96e5	2.35e5	2.36e5
Octbeta2R (Octopamine beta2 receptor)	SID104195142	1.38e5	1.22e5	2.05e6	1.85e6
Octbeta2R (Octopamine beta2 receptor)	SID104195957	1.57e5	1.25e5	1.71e6	1.34e6
Octbeta2R (Octopamine beta2 receptor)	SID104203926	5.37e5	5.59e5	5.88e5	4.87e5
Octbeta2R (Octopamine beta2 receptor)	SID104204927	3.04e5	2.63e5	1.19e6	8.06e5
CG33258	SID104189207	2.48e5	2.21e5	4.95e5	3.62e5
CG33258	SID104202811	6.15e5	5.26e5	3.76e5	4.93e5
shrb (shrub)	SID104186853	8.45e5	1.08e6	1.03e6	1.37e6
CG34327	SID104199309	6.40e5	5.73e5	3.00e6	2.86e6
CG34327	SID104201860	1.06e6	9.54e5	2.42e6	1.75e6
CG34327	SID104207741	5.76e5	5.08e5	1.51e6	1.28e6
CG3611	SID104184187	4.46e5	3.57e5	1.67e6	1.70e6
CG16926	SID104186429	1.21e6	1.10e6	9.91e5	8.71e5
Tektin-A (Tektin A)	SID104181713	8.34e5	7.81e5	2.12e6	2.45e6
LKRSDH (Lysine ketoglutarate reductase/saccharopine dehydrogenase)	SID104182807	1.23e6	1.21e6	2.98e6	3.00e6
LKRSDH (Lysine ketoglutarate reductase/saccharopine dehydrogenase)	SID104203270	5.97e5	6.05e5	8.01e5	9.13e5
Arpc3A (Actin-related protein 2/3 complex, subunit 3A)	SID104195388	77490	1.01e5	1.63e6	1.79e6
Arpc3A (Actin-related protein 2/3 complex, subunit 3A)	SID104206459	4.47e5	2.86e5	2.02e6	1.31e6
witty (without maturity)	SID104182170	3.38e5	2.19e5	3.38e6	2.48e6
witty (without maturity)	SID104201340	6.97e5	7.49e5	1.03e6	8.82e5
witty (without maturity)	SID104204698	3.39e5	4.51e5	5.81e5	6.63e5
CG18268 + CG3014	SID104195111	53566	52334	1.31e6	1.20e6
CG16959	SID104190022	7.22e5	6.49e5	1.10e6	1.21e6
CG32202	SID104189781	3.37e5	2.41e5	1.98e6	2.23e6
Mst84B (Male-specific transcript 84B)	SID104192371	1.37e5	93485	2.43e6	1.97e6
Mst84B (Male-specific transcript 84B)	SID104206311	2.90e5	2.65e5	4.76e5	7.52e5
Unc50 (Unc50 RNA binding protein)	SID104196353	1.61e5	1.34e5	1.89e6	1.81e6
Unc50 (Unc50 RNA binding protein)	SID104207104	2.39e5	3.74e5	6.68e5	1.11e6
Spase22-23 (Spase 22/23-subunit)	SID104195649	2.51e5	2.02e5	2.42e6	2.45e6
Atg14 (Autophagy-related 14)	SID104194213	90645	1.18e5	6.98e5	4.19e5
Atg14 (Autophagy-related 14)	SID104205710	2.53e5	2.95e5	4.90e5	5.73e5
ms(2)35Ci (male sterile (2) 35Ci)	SID104181252	1.81e5	1.88e5	5.33e5	4.44e5
CG11741	SID104194159	62623	78855	2.16e6	1.85e6
CG17646	SID104180299	8.90e5	1.04e6	2.71e6	2.39e6
CG1889 + CG43386	SID104197771	2.94e5	3.48e5	1.65e6	2.35e6
Burs (Bursicon)	SID104194387	2.51e5	2.40e5	2.68e6	2.96e6
Ts (Thymidylate synthase)	SID104180587	1.23e5	1.25e5	9.41e5	1.08e6
Ts (Thymidylate synthase)	SID104201714	9.24e5	6.47e5	2.19e6	1.70e6
CG9297	SID104196261	69866	58785	2.54e5	2.06e5
CG9297	SID104203802	7.17e5	6.39e5	1.12e6	1.05e6
CG30357	SID104201930	4.55e5	9.87e5	1.62e5	2.16e5
Prim2 (DNA primase subunit 2)	SID104191402	9271	5459	1.33e5	96836
CG16713	SID104180269	1.45e5	1.06e5	1.34e6	9.06e5
smog	SID104180126	82909	80584	7.83e5	6.44e5
smog	SID104202410	77688 (active)	1.17e5	5.26e5	6.29e5
smog	SID104205767	5.47e5	6.64e5	6.34e5	6.35e5
na (narrow abdomen)	SID104199431	3.11e5	3.93e5	4.20e6	4.10e6
na (narrow abdomen)	SID104208372	3.62e5	4.21e5	1.44e6	1.45e6

Records above marked active:
gene knocked down	PubChem SID	firefly reporter light, replicate 1	firefly reporter light, replicate 2	Renilla control light, replicate 1	Renilla control light, replicate 2
smog	SID104202410	77688 (active)	1.17e5	5.26e5	6.29e5
